Measurements: US12448606B2, “Assay for FGF2 secretion and signaling” (Universitaet Heidelberg, priority 2014, dated 2025)
At least one compound was matched to its structure with a doubt left.

How the values were obtained:
SK-N-MC cells [1] = test: Co-culture of SK-N-MC mCherry-NLS cells with HeLa S3 cells expressing FGF2 in a doxycycline-dependent manner (proliferation); format: cell-based, human
SK-N-MC cells [2] = test: Quotient of green versus red fluorescence in co-culture with HeLa cells secreting FGF2 inducible by doxycycline; format: cell-based, human; conditions: doxycycline 1 μg/ml; FIG. 8

Structure (SMILES): C[C@H]1c2cccc(O)c2C(=O)C2=C(O)[C@]3(O)C(=O)C(C(N)=O)=C(O)[C@@H](N(C)C)[C@@H]3[C@@H](O)[C@@H]21 [doxycycline]
- proliferation of target cells at different amounts of doxycycline (SK-N-MC cells [1]; FIGS. 5 and 6): the more FGF2 is secreted the less proliferation of target cells
- number of target cells after induction of FGF2 secretion (SK-N-MC cells [1]; addition of doxycycline to co-incubated HeLa cells, FIG. 2): massive reduction of the number of target cells
- quotient of red fluorescent nuclei and green fluorescence caused by apoptotic cells (SK-N-MC cells [2]): quotient increases
